Our source for the binding values is publication PMC12759081.

The target in the test is Flag-Sororin (human), Q96FF9. The test is described as follows: affinity purification with mass spectrometry; Flag-Sororin overexpressed in HEK293F cells, precipitated with anti-Flag M2 agarose (4 h, 4 °C), eluted with Flag peptide, eluate analysed by mass spectrometry. To be noted: remark: other sources report otherwise.

No constants are given. Whether binding was seen depends on the method and setting. Binding seen in cells or lysates may run through a third protein. These calls come from enrichment with a bait or labelling near it, and not all partners need be listed. Tags and fused reporters may be left off the sequences shown.

B1: STAG2, Q8N3U4 1-1231 (protein)
chain: MIAAPEIPTDFNLLQESETHFSSDTDFEDIEGKNQKQGKGKTCKKGKKGPAEKGKGGNGGGKPPSGPNRMNGHHQQNGVENMMLFEVVKMGKSAMQSVVDDWIESYKHDRDIALLDLINFFIQCSGCKGVVTAEMFRHMQNSEIIRKMTEEFDEDSGDYPLTMAGPQWKKFKSSFCEFIGVLVRQCQYSIIYDEYMMDTVISLLTGLSDSQVRAFRHTSTLAAMKLMTALVNVALNLSINMDNTQRQYEAERNKMIGKRANERLELLLQKRKELQENQDEIENMMNAIFKGVFVHRYRDAIAEIRAICIEEIGIWMKMYSDAFLNDSYLKYVGWTMHDKQGEVRLKCLTALQGLYYNKELNSKLELFTSRFKDRIVSMTLDKEYDVAVQAIKLLTLVLQSSEEVLTAEDCENVYHLVYSAHRPVAVAAGEFLYKKLFSRRDPEEDGMMKRRGRQGPNANLVKTLVFFFLESELHEHAAYLVDSMWDCATELLKDWECMNSLLLEEPLSGEEALTDRQESALIEIMLCTIRQAAECHPPVGRGTGKRVLTAKEKKTQLDDRTKITELFAVALPQLLAKYSVDAEKVTNLLQLPQYFDLEIYTTGRLEKHLDALLRQIRNIVEKHTDTDVLEACSKTYHALCNEEFTIFNRVDISRSQLIDELADKFNRLLEDFLQEGEEPDEDDAYQVLSTLKRITAFHNAHDLSKWDLFACNYKLLKTGIENGDMPEQIVIHALQCTHYVILWQLAKITESSSTKEDLLRLKKQMRVFCQICQHYLTNVNTTVKEQAFTILCDILMIFSHQIMSGGRDMLEPLVYTPDSSLQSELLSFILDHVFIEQDDDNNSADGQQEDEASKIEALHKRRNLLAAFCKLIVYTVVEMNTAADIFKQYMKYYNDYGDIIKETMSKTRQIDKIQCAKTLILSLQQLFNEMIQENGYNFDRSSSTFSGIKELARRFALTFGLDQLKTREAIAMLHKDGIEFAFKEPNPQGESHPPLNLAFLDILSEFSSKLLRQDKRTVYVYLEKFMTFQMSLRREDVWLPLMSYRNSLLAGGDDDTMSVISGISSRGSTVRSKKSKPSTGKRKVVEGMQLSLTEESSSSDSMWLSREQTLHTPVMMQTPQLTSTIMREPKRLRPEDSFMSVYPMQTEHHQTPLDYNRRGTSLMEDDEEPIVEDVMMSSEGRIEDLNEGMDFDTMDIDLPPSKNRRERTELKPDFFDPASIMDESVLGVSMF
Consider B1, for which the binding result was “binds”.
